The values below come from the supplement of paper PMC8104966.

SMILES strings stand for the structures. The list shows a part of the results. Single values are uncertain here, since repeats match poorly.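 Fusion between ACE2-bearing and full-length-spike-bearing U2OS cells was measured by imaging as the percentage of nuclei with both cell types' fluorescent markers. An inhibitory hit is a non-toxic compound whose fusion z-score is below -3, more than three standard deviations beneath the plate's DMSO wells.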

This test relates to U2OS ACE2 x SARS-CoV-2 spike co-culture. As to the kind of experiment: cell-cell fusion (fraction fused) z-score vs plate DMSO control; higher = more fusion. The settings on record: 30 µM; 5 h; toxicity class: non-toxic, passed QC.
Consider `NS(=O)(=O)c1cc2c(cc1Cl)NCNS2(=O)=O`, for which the “cell-cell fusion (z-score)” value was inactive: 1.91.

`NS(=O)(=O)c1cc2c(cc1Cl)NCNS2(=O)=O` [Hydrochlorothiazide]: the “cell-cell fusion (z-score)” value is inactive: 3.94.

In the case of `CC(=O)OCC(=O)[C@@]1(O)CC[C@H]2[C@@H]3CCC4=CC(=O)CC[C@]4(C)[C@H]3[C@@H](O)C[C@@]21C` [Hydrocortisone acetate], the “cell-cell fusion (z-score)” value was inactive: 2.3.

As to `Cn1cnc2c(NCc3ccccc3)nc(NCCO)nc21` [Olomoucine], the “cell-cell fusion (z-score)” value is inactive: 3.08.

`CCCNC(C)C(=O)Nc1ccccc1C.Cl` (stereo not given) [Propitocaine hydrochloride]: the “cell-cell fusion (z-score)” value was inactive: 3.36.

As to `CCOc1cc(NC(C)=O)ccc1C(=O)OC`, the “cell-cell fusion (z-score)” value is inactive: 2.36.

Turning to `C[C@@H](c1ncncc1F)[C@](O)(Cn1cncn1)c1ccc(F)cc1F` [Voriconazole], the “cell-cell fusion (z-score)” value is inactive: 1.24.

For the molecule `CCCc1ncc(C[n+]2ccccc2C)c(N)n1.[Cl-]`, the “cell-cell fusion (z-score)” value was inactive: 2.84.

Regarding `Cc1cc(N)c2ccccc2[n+]1CCCCCCCCCC[n+]1c(C)cc(N)c2ccccc21.[Cl-].[Cl-]` [Dequalinium chloride hydrate], the “cell-cell fusion (z-score)” value was inactive: 1.46.

For `CCOC(=O)C1=C(O)C(=O)N(Cc2ccccc2)C1`, the “cell-cell fusion (z-score)” value is inactive: 2.11.

In the case of `COC[C@]12CN(C=O)C3[C@@H]4[C@H](OC)C1[C@]3(C1CC3(O)C(OC)C(O)C4(OC(C)=O)C1C3OC(=O)c1ccccc1)[C@@H](OC)C[C@H]2O` (stereo not given in full), the “cell-cell fusion (z-score)” value was inactive: 1.64.

In the case of `NC(=O)c1cccnc1`, the “cell-cell fusion (z-score)” value was inactive: 2.65.

In the case of `O=C(N[C@H]1CN2CC[C@H]1CC2)C1=CC2=C(OC=C2)C=N1`, the “cell-cell fusion (z-score)” value is inactive: 1.9.

Regarding `Cc1ccc(C(=O)Nc2ccc(S(=O)(=O)[O-])c3cc(S(=O)(=O)[O-])cc(S(=O)(=O)[O-])c23)cc1NC(=O)c1cccc(NC(=O)Nc2cccc(C(=O)Nc3cc(C(=O)Nc4ccc(S(=O)(=O)[O-])c5cc(S(=O)(=O)[O-])cc(S(=O)(=O)[O-])c45)ccc3C)c2)c1.[Na+].[Na+].[Na+].[Na+].[Na+].[Na+]` [Suramin sodium salt], the “cell-cell fusion (z-score)” value was active: -4.51.

With `NC(=O)c1cccc(N)c1`, the “cell-cell fusion (z-score)” value was inactive: 2.27.

On to `CC(CCc1ccccc1)NCC(O)c1ccc(O)c(C(N)=O)c1.Cl` (stereo not given) [Labetalol hydrochloride], for which the “cell-cell fusion (z-score)” value was inactive: 2.49.

Take `COc1cc(C(=O)OCCCN2CCCN(CCCOC(=O)c3cc(OC)c(OC)c(OC)c3)CC2)cc(OC)c1OC.Cl.Cl`: the “cell-cell fusion (z-score)” value was inactive: 0.324.

On to `CN1CCN(CC/C=C2\c3ccccc3Sc3ccc(S(=O)(=O)N(C)C)cc32)CC1`, for which the “cell-cell fusion (z-score)” value was inactive: -1.64.

For the molecule `CN[C@@H]1[C@H](O)[C@H](NC)[C@H]2O[C@@]3(O)C(=O)C[C@@H](C)O[C@H]3O[C@@H]2[C@H]1O.Cl.Cl`, the “cell-cell fusion (z-score)” value is inactive: 0.933.

As to `COc1cc2c(cc1OC)C1C(=O)c3c(cc4c(c3O)C=CC(C)(C)O4)OC1CO2` (stereo not drawn) [beta-TOXICAROL], the “cell-cell fusion (z-score)” value is inactive: 1.74.

In the case of `CC(C)(C)NCC(O)COc1cccc2c1CCC(=O)N2.Cl` (stereo not given), the “cell-cell fusion (z-score)” value is inactive: 1.22.

As for `CC1CCCC(C)N1` (stereo not given), the “cell-cell fusion (z-score)” value was inactive: 1.4.

With `CN1C2CCC1CC(OC(c1ccccc1)c1ccccc1)C2.CS(=O)(=O)O` (stereo not given) [Benztropine mesylate], the “cell-cell fusion (z-score)” value was inactive: 2.23.

Take `CNC(=O)Oc1ccc2c(c1)[C@]1(C)CCN(C)[C@@H]1N2C` [(-)-Physostigmine]: the “cell-cell fusion (z-score)” value is inactive: 2.58.

With `CC(=O)N[C@@H](CC(C)C)C(=O)O`, the “cell-cell fusion (z-score)” value is inactive: 2.46.

Regarding `CN(C)CCCN1c2ccccc2Sc2ccc(Cl)cc21.Cl` [Chlorpromazine hydrochloride], the “cell-cell fusion (z-score)” value is inactive: 0.287.

Consider `CCCCC1=NC2(CCCC2)C(=O)N1Cc1ccc(-c2ccccc2-c2nn[nH]n2)cc1` [Irbesartan], for which the “cell-cell fusion (z-score)” value was inactive: 3.11.

`O=C(/C=C/c1cccnc1)NCCCCC1CCN(C(=O)c2ccccc2)CC1`: the “cell-cell fusion (z-score)” value was inactive: 1.67.

Regarding `OC[C@@H](O)[C@@H](O[C@@H]1O[C@H](CO)[C@H](O)[C@H](O)[C@H]1O)[C@H](O)[C@@H](O)CO`, the “cell-cell fusion (z-score)” value is inactive: 3.29.

Regarding `CC(C)c1ccc2oc3nc(N)c(C(=O)O)cc3c(=O)c2c1` [Amlexanox], the “cell-cell fusion (z-score)” value was inactive: 1.

For `CC1=NN(c2ccc(C)c(C)c2)C(=O)/C1=N\Nc1cccc(-c2cccc(C(=O)O)c2)c1O.NCCO.NCCO` [Eltrombopag Olamine], the “cell-cell fusion (z-score)” value is inactive: 2.78.

As to `O=c1[nH]cnc2nc[nH]c12`, the “cell-cell fusion (z-score)” value is inactive: 2.02.

`CO[C@H]1O[C@@H]2O[C@]3(C)CC[C@@H]4[C@@H](C)CC[C@H]([C@H]1C)[C@]24OO3` [Artemether]: the “cell-cell fusion (z-score)” value is inactive: 1.35.

As to `CCCCCCCCCCCCc1ccc(S(=O)(=O)Nc2nncs2)cc1`, the “cell-cell fusion (z-score)” value is inactive: 1.19.

As to `CC(C)(C)NC(=O)[C@H]1CCC2C3CCC4NC(=O)C=C[C@]4(C)C3CC[C@@]21C` (stereo not given in full), the “cell-cell fusion (z-score)” value was inactive: 3.48.

Turning to `N#CC(CCCN1CCN(/N=C/c2cccnc2)CC1)(c1ccccc1)c1ccccc1`, the “cell-cell fusion (z-score)” value is inactive: 4.14.

Consider `Nc1nc2c(cnn2CCc2ccccc2)c2nc(-c3ccco3)nn12`, for which the “cell-cell fusion (z-score)” value is inactive: -1.02.

`Cc1nc2ccccn2c(=O)c1CCN1CCC(C(=O)c2ccc(F)cc2)CC1` [Pirenperone]: the “cell-cell fusion (z-score)” value is inactive: 1.1.

On to `Cc1nc2ccccn2c(=O)c1CCN1CCC(C(=O)c2ccc(F)cc2)CC1`, for which the “cell-cell fusion (z-score)” value is inactive: 0.979.

Turning to `CCOC(=O)c1ncn2c1CN(C)C(=O)c1cc(F)ccc1-2` [Flumazenil], the “cell-cell fusion (z-score)” value was inactive: 3.92.

In the case of `C[N+](C)(C)CCOC(=O)CBr.[Br-]` [Bromoacetylcholine bromide], the “cell-cell fusion (z-score)” value was inactive: 1.62.

Regarding `O=C(N[C@@H](CO)[C@H](O)c1ccc([N+](=O)[O-])cc1)C(Cl)Cl`, the “cell-cell fusion (z-score)” value was inactive: 1.22.

Regarding `COc1cc2oc3cc(OC)c(OC)c(CC=C(C)C)c3c(=O)c2c(OC)c1CC=C(C)C`, the “cell-cell fusion (z-score)” value is inactive: 2.72.

`CC(C)c1cccc(C(C)C)c1N1C(=O)c2ccc(O)cc2C1=O`: the “cell-cell fusion (z-score)” value was inactive: 5.72.

In the case of `Cc1ccc(C(=O)Nc2ccc(S(=O)(=O)[O-])c3cc(S(=O)(=O)[O-])cc(S(=O)(=O)[O-])c23)cc1NC(=O)c1cccc(NC(=O)Nc2cccc(C(=O)Nc3cc(C(=O)Nc4ccc(S(=O)(=O)[O-])c5cc(S(=O)(=O)[O-])cc(S(=O)(=O)[O-])c45)ccc3C)c2)c1.[Na+].[Na+].[Na+].[Na+].[Na+].[Na+]`, the “cell-cell fusion (z-score)” value is inactive: 2.46.
